Reference: publication PMC11994759
These are yes or no findings as the source states them, for the method shown. Binding seen in cells or lysates may run through a third protein. Some binding calls cover weakened binding; strength is not graded here. For part of these data: Where a sequence is shown, tags or fusion partners need not be part of it.

The chains behind the UniProt entries cited, without tags or fusion partners.
UniProt Q15149: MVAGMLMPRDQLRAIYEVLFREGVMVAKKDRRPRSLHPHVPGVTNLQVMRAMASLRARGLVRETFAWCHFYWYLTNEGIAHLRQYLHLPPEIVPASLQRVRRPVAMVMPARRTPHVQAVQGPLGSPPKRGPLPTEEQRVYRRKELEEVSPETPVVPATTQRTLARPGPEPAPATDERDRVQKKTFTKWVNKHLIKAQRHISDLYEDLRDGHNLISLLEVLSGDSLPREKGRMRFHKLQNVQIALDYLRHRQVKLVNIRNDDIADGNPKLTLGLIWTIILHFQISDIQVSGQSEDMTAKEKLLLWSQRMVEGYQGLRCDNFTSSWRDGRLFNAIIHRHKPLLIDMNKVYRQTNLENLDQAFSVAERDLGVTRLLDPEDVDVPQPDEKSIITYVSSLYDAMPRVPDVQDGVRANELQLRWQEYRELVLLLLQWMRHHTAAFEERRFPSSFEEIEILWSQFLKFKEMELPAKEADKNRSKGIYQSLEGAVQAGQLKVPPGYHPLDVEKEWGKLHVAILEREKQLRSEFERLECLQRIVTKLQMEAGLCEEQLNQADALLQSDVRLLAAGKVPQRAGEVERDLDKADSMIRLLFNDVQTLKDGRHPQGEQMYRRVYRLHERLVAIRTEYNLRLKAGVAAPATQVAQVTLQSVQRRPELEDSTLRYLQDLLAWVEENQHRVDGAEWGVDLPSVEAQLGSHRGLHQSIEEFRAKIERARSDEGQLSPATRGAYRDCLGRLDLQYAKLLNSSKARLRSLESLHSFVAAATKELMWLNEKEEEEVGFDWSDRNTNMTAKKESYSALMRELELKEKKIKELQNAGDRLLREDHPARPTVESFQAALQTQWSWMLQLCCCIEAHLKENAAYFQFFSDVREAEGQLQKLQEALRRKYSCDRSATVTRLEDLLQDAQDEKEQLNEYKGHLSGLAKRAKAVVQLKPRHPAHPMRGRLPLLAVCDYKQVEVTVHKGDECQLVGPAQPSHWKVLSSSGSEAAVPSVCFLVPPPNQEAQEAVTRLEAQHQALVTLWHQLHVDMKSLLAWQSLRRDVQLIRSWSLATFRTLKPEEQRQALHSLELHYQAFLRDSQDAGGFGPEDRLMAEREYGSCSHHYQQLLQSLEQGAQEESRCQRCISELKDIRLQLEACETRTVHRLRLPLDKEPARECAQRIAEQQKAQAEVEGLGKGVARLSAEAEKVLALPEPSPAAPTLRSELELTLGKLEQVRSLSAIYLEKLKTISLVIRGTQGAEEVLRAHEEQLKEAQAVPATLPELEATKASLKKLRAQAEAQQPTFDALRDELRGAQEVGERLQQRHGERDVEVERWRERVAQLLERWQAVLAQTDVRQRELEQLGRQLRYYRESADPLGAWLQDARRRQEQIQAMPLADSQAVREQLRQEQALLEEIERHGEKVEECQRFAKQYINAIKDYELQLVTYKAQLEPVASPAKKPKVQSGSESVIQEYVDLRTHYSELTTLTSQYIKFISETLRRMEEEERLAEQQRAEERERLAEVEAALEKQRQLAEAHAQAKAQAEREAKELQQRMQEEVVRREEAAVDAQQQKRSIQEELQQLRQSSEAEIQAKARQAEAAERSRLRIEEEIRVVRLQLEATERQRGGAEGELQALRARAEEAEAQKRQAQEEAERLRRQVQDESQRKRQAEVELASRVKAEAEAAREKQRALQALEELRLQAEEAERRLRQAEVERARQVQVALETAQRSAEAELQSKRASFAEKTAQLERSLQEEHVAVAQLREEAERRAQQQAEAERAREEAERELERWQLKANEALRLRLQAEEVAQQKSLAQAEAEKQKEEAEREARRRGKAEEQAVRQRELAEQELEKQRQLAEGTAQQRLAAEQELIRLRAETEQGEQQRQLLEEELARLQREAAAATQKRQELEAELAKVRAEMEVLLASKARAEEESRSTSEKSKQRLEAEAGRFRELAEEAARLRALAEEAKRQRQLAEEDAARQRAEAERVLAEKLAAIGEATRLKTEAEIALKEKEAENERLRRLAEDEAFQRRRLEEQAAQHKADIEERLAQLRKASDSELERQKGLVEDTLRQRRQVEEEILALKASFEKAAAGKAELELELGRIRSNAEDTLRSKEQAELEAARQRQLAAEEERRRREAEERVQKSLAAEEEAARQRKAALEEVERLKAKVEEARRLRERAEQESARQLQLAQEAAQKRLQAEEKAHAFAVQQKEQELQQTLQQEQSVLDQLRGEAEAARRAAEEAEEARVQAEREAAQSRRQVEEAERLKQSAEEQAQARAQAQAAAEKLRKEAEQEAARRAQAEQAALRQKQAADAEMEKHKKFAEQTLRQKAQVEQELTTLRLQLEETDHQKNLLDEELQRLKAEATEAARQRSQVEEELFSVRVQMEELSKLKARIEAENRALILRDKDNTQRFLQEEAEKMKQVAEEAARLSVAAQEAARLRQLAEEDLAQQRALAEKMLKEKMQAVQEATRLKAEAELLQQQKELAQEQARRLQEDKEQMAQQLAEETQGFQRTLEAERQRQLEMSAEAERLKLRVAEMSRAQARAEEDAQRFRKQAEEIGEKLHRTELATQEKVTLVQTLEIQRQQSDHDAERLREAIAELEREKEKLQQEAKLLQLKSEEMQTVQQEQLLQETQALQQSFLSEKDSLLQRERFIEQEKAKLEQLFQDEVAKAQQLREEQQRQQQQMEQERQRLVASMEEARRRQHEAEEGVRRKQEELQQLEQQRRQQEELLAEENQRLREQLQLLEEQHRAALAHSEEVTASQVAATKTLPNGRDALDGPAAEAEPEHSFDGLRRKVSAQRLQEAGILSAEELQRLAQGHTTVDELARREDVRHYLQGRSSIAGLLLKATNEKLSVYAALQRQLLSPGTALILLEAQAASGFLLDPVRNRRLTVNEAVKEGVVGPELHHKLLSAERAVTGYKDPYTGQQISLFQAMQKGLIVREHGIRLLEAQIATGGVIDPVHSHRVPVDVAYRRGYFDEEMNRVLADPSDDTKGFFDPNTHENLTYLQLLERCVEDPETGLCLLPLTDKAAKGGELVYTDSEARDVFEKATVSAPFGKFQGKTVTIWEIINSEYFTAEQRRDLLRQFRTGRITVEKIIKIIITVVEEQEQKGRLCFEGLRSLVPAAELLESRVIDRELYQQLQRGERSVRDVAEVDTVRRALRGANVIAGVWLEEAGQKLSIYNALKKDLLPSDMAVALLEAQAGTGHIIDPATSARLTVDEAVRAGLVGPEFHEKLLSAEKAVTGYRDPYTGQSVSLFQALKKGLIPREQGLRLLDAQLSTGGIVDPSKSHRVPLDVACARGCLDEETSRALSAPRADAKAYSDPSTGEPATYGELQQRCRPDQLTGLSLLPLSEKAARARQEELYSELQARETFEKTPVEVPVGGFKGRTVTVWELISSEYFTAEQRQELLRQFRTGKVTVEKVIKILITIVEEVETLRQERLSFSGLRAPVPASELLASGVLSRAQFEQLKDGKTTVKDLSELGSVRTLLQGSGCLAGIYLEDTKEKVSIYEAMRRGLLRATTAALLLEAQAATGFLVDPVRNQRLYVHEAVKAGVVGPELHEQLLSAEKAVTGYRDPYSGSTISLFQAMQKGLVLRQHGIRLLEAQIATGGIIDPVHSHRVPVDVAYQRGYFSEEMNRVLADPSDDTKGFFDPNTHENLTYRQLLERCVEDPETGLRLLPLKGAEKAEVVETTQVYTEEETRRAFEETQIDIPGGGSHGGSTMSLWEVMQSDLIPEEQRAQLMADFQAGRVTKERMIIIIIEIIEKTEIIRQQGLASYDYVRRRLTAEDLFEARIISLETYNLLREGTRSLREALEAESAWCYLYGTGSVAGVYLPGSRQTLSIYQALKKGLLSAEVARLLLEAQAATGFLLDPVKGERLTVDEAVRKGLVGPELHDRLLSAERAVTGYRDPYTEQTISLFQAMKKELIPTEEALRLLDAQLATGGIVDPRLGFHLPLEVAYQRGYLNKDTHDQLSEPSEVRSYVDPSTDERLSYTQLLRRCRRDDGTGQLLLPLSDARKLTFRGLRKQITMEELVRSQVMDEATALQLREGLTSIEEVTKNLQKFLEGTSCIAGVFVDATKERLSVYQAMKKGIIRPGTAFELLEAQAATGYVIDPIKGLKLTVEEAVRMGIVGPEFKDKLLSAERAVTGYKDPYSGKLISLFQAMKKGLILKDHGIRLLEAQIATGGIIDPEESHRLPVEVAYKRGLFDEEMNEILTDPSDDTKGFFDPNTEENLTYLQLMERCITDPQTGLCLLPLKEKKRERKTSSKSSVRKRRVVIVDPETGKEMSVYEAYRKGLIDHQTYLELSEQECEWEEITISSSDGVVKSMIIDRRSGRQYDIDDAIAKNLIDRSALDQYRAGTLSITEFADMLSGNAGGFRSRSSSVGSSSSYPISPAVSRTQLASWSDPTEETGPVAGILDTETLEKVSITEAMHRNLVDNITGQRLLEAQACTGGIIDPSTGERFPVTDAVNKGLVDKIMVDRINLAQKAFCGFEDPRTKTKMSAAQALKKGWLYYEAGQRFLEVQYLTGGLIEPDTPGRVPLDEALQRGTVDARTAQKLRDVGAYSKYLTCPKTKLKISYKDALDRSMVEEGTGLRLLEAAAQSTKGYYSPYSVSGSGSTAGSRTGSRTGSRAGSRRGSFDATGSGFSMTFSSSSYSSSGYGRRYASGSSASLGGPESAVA

Key:
[1] = molecular target: T1, Rap2B (endogenous) (human (endogenous in U2OS and LOVO or HCT116)) (UniProt P61225); assay: co-IP; endogenous Rap2B and endogenous plectin in U2OS and LOVO cells (legend: U2OS and HCT116); 0.1% NP-40 lysis buffer, primary antibody overnight at 4 °C, protein A/G magnetic beads
T1 sequence: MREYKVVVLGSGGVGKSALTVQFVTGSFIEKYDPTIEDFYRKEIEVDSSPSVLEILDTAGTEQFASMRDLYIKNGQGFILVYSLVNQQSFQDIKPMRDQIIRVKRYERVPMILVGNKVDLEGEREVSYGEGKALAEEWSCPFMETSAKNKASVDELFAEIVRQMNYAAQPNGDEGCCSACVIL

[2] = molecular target: T2, Flag-tagged Rap2B (wild type), ectopically expressed (UniProt P61225); assay: co-IP; ectopically expressed Rap2B or C180A mutant (adenovirus) and endogenous plectin in LOVO cells; 0.1% NP-40 lysis buffer, primary antibody overnight at 4 °C, protein A/G magnetic beads
T2 sequence: T1 sequence

[3] = molecular target: T2, Flag-tagged Rap2B (wild type), ectopically expressed; assay: co-IP; ectopically expressed Rap2B and endogenous plectin in HCT116 cells; 0.1% NP-40 lysis buffer, primary antibody overnight at 4 °C, protein A/G magnetic beads

binding [1]: binds
binding [2]: binds
binding [3]: binds
Substance: plectin (endogenous) (from UniProt Q15149 1-4684)
